Values joined by “and” are separate entries in the source; they are usually repeats but may differ in a detail not shown here. Equal values may be shown once. This is one part of the list. For some assays here: The source does not settle which construct or isoform was used.
Columns and labels:
Assay in all cases: protein microarray (ProtoArray v5.0), streptavidin-Alexa Fluor 647
Settings in all cases: 3'-biotin; 20 mM Tris (pH 7.5), 5 mM MgCl2, 100 mM KCl, 0.1% Tween-20, A/T-rich and random oligonucleotide blockers; temperature not stated; high values mean tight binding
[1] = system: Guanylate cyclase activator 2B (human)
HAAO (human) = system: HAAO (human)
HAS3 (human) = system: HAS3 (human)
HAVCR2 (human) = system: HAVCR2 (human)
HAX1 (human) = system: HAX1 (human)
HBG1 (human) = system: HBG1 (human)
HBG2 (human) = system: HBG2 (human)
HBS1L = HBS1L (UniProt Q9Y450)
HBZ (human) = system: HBZ (human)
HCCS (human) = system: HCCS (human)
HCG3 (human) = system: HCG3 (human)
HDGFRP3 = HDGFRP3 (UniProt Q9Y3E1)
HDHD3 (human) = system: HDHD3 (human)
HEBP1 (human) = system: HEBP1 (human)
HEL308 (human) = system: HEL308 (human)
HERPUD1 (human) = system: HERPUD1 (human)
HFE (human) = system: HFE (human)
HGS (human) = system: HGS (human)
HINT1 = HINT1 (UniProt P49773)
HIST2H2AC = HIST2H2AC (UniProt Q16777)

By UniProt entry, the sequences of proteins in these tests, tags left out. Where a name states a change or a piece, a line headed by the entry shows the natural chain unless it says otherwise.
UniProt Q9Y3E1: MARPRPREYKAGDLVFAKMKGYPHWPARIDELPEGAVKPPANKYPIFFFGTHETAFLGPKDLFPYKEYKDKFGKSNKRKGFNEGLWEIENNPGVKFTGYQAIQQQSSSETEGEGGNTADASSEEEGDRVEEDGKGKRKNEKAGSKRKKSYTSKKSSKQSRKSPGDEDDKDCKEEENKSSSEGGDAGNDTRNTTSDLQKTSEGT
UniProt P49773: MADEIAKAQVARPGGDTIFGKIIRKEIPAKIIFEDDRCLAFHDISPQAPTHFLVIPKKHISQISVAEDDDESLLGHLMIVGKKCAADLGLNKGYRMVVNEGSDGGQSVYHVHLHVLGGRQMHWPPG

For “GGGGACAGGGGTATGGGGAGGGG [G4-3 biotinylated (CtG)]”, which binding signal [1] is on record?
The binding signal was -0.321 z-score.

What about the binding signal (HAAO (human)) of the same sequence?
Its binding signal is -0.333 z-score.

What about the binding signal (HAS3 (human)) of the same sequence?
The binding signal was -0.313 z-score.

And the binding signal (HAVCR2 (human))?
The binding signal was -0.336 z-score.

What about the binding signal (HAX1 (human)) of the same sequence?
Its binding signal is -0.325 z-score.

What about the binding signal (HBG1 (human)) of the same sequence?
Its binding signal is -0.321 z-score and -0.342 z-score.

What about the binding signal (HBG2 (human)) of the same sequence?
The binding signal was -0.302 z-score.

What about the binding signal (HBS1L) of the same sequence?
Its binding signal is 5.55 z-score.

And the binding signal (HBZ (human))?
Its binding signal is -0.341 z-score.

And the binding signal (HCCS (human))?
The binding signal was -0.322 z-score.

What about the binding signal (HCG3 (human)) of the same sequence?
The binding signal was -0.331 z-score.

What about the binding signal (HDGFRP3) of the same sequence?
Its binding signal is 5.68 z-score.

What about the binding signal (HDHD3 (human)) of the same sequence?
Its binding signal is -0.321 z-score.

And the binding signal (HEBP1 (human))?
Its binding signal is -0.306 z-score.

What about the binding signal (HEL308 (human)) of the same sequence?
Its binding signal is -0.327 z-score.

What about the binding signal (HERPUD1 (human)) of the same sequence?
Its binding signal is -0.316 z-score.

And the binding signal (HFE (human))?
Its binding signal is -0.331 z-score.

What about the binding signal (HGS (human)) of the same sequence?
Its binding signal is -0.324 z-score.

What about the binding signal (HINT1) of the same sequence?
Its binding signal is -0.329 z-score.

What about the binding signal (HIST2H2AC) of the same sequence?
Its binding signal is 3.91 z-score.

Source: PMC5996148
